# According to the supplement of paper PMC4604168 (melanoma cell lines):
# The other results are listed elsewhere or left out. Single values are uncertain, as repeats are few or missing.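 Cells were imaged in 1,536-well plates, and nuclei stained with an antibody against cleaved PARP were counted against all DNA-stained nuclei to give the apoptosis fraction. Screening doses were chosen to leave most cells alive, and resting and induced cleaved-PARP levels differ strongly between cell lines.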
# How the values were obtained:
# Assay in all cases: cleaved PARP positive nuclei fraction relative to DMSO control; melanoma cells; higher = more apoptosis
# Settings in all cases: library dose: low library concentration; 72 h
# CBRC034 = system: CBRC034 (line from a melanoma biopsy)
# COLO792 = system: COLO792
# COLO800 = system: COLO800
# COLO829 = system: COLO829
# G361 = system: G361
# IPC-298 = system: IPC-298
# IST-MEL1 = system: IST-MEL1
# LB2518-MEL = system: LB2518-MEL
# LOXIMVI = system: LOXIMVI
# MEL-HO = system: MEL-HO
# MZ2-MEL = system: MZ2-MEL
# MeWo = system: MeWo
# RPMI7951 = system: RPMI7951
# RVH-421 = system: RVH-421
# SkMel28 = system: SkMel28
# SkMel2 = system: SkMel2
# SkMel30 = system: SkMel30
# UACC62 = system: UACC62
SMILES,cleaved PARP positive nuclei fraction (CBRC034) [%],cleaved PARP positive nuclei fraction (COLO792) [%],cleaved PARP positive nuclei fraction (COLO800) [%],cleaved PARP positive nuclei fraction (COLO829) [%],cleaved PARP positive nuclei fraction (G361) [%],cleaved PARP positive nuclei fraction (IPC-298) [%],cleaved PARP positive nuclei fraction (IST-MEL1) [%],cleaved PARP positive nuclei fraction (LB2518-MEL) [%],cleaved PARP positive nuclei fraction (LOXIMVI) [%],cleaved PARP positive nuclei fraction (MEL-HO) [%],cleaved PARP positive nuclei fraction (MZ2-MEL) [%],cleaved PARP positive nuclei fraction (MeWo) [%],cleaved PARP positive nuclei fraction (RPMI7951) [%],cleaved PARP positive nuclei fraction (RVH-421) [%],cleaved PARP positive nuclei fraction (SkMel28) [%],cleaved PARP positive nuclei fraction (SkMel2) [%],cleaved PARP positive nuclei fraction (SkMel30) [%],cleaved PARP positive nuclei fraction (UACC62) [%]
"Cc1ccc(Nc2nccc(N(C)c3ccc4c(C)n(C)nc4c3)n2)cc1S(N)(=O)=O [Pazopanib] + COc1ccc(C2=N[C@@H](c3ccc(Cl)cc3)[C@@H](c3ccc(Cl)cc3)N2C(=O)N2CCNC(=O)C2)c(OC(C)C)c1 [Nutlin-3] (first compound 0.4 µM, partner dose 0.1 µM)",68.7,138,93.8,148,118,401,39.4,180,83.7,107,113,63.7,124,90.1,80,29.2,50.8,100
"CC[C@]1(O)C[C@H]2CN(CCc3c([nH]c4ccccc34)[C@@](C(=O)OC)(c3cc4c(cc3OC)N(C=O)[C@H]3[C@@](O)(C(=O)OC)[C@H](OC(C)=O)[C@]5(CC)C=CCN6CC[C@]43[C@@H]65)C2)C1 [vincristine] + Cn1nnc2c(C(N)=O)ncn2c1=O [temozolomide] (first compound 0.0001 µM, partner dose 2 µM)",53.4,81,101,149,85.7,29.9,65.2,103,151,96.6,76.7,246,123,54.9,111,111,220,461
"CC[C@]1(O)C[C@H]2CN(CCc3c([nH]c4ccccc34)[C@@](C(=O)OC)(c3cc4c(cc3OC)N(C=O)[C@H]3[C@@](O)(C(=O)OC)[C@H](OC(C)=O)[C@]5(CC)C=CCN6CC[C@]43[C@@H]65)C2)C1 [vincristine] + Cc1cn(-c2cc(NC(=O)c3ccc(C)c(Nc4nccc(-c5cccnc5)n4)c3)cc(C(F)(F)F)c2)cn1 [nilotinib] (first compound 0.0001 µM, partner dose 0.2 µM)",67.5,34.4,84.8,56.7,115,44.3,70.6,232,248,167,95.8,153,96.2,77.3,156,198,249,204
"CC[C@]1(O)C[C@H]2CN(CCc3c([nH]c4ccccc34)[C@@](C(=O)OC)(c3cc4c(cc3OC)N(C=O)[C@H]3[C@@](O)(C(=O)OC)[C@H](OC(C)=O)[C@]5(CC)C=CCN6CC[C@]43[C@@H]65)C2)C1 [vincristine] + CCN(CC)CCNC(=O)c1c(C)[nH]c(/C=C2\C(=O)Nc3ccc(F)cc32)c1C [sunitinib] (first compound 0.0001 µM, partner dose 0.4 µM)",123,57.7,110,141,131,88.6,115,181,118,249,89.2,90.6,112,114,76.5,69.2,175,90.3
"Cc1ccc(Nc2nccc(N(C)c3ccc4c(C)n(C)nc4c3)n2)cc1S(N)(=O)=O [Pazopanib] + Cc1cc(Nc2cc(N3CCN(C)CC3)nc(/C=C/c3ccccc3)n2)n[nH]1 [ENMD2076] (first compound 0.4 µM, partner dose 0.04 µM)",43.8,165,103,96.9,168,273,126,95.7,28.7,61,72.8,57.3,111,131,94.4,101,22.5,75.7
"Cc1ccc(Nc2nccc(N(C)c3ccc4c(C)n(C)nc4c3)n2)cc1S(N)(=O)=O [Pazopanib] + Cc1nc(Nc2ncc(C(=O)Nc3c(C)cccc3Cl)s2)cc(N2CCN(CCO)CC2)n1 [dasatanib] (first compound 0.4 µM, partner dose 0.004 µM)",85.7,196,91.8,153,113,104,134,122,113,58.4,184,85.6,125,52,64.5,165,38.6,122
"O=C(/C=C/c1cccnc1)NCCCCC1CCN(C(=O)c2ccccc2)CC1 + CN1CCN(c2ccc3nc(-c4c(N)c5c(F)cccc5[nH]c4=O)[nH]c3c2)CC1 [Dovitinib] (first compound 0.01 µM, partner dose 0.1 µM)",2470,351,110,432,2000,337,101,265,149,582,273,86.9,43,169,101,1260,149,34.5
"CCCCCCCCCCCCCCCCCCOP(=O)([O-])OC1CC[N+](C)(C)CC1 [Perifosine] + CC(=O)c1c(C)c2cnc(Nc3ccc(N4CCNCC4)cn3)nc2n(C2CCCC2)c1=O [palbociclib] (first compound 0.4 µM, partner dose 0.04 µM)",61.2,113,98.6,61.5,83.8,93.5,68.1,94.8,67.5,63.1,28.8,14.5,89.7,167,222,27.3,154,134
